These are yes or no findings as the source states them, for the method shown. Sequences can lack the tags named with a protein.
T1: yeast Ndl1^CC E64A R78A (S. cerevisiae) (UniProt Q06568)
T1 sequence: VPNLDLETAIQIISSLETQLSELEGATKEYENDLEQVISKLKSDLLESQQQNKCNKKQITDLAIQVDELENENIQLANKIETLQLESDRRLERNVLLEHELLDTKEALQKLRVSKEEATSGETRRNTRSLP

Chains of the proteins cited; added tags and fusions are not shown. Lines headed by an entry give the natural chain unless they say otherwise; changes in a name come on top.
UniProt P36022: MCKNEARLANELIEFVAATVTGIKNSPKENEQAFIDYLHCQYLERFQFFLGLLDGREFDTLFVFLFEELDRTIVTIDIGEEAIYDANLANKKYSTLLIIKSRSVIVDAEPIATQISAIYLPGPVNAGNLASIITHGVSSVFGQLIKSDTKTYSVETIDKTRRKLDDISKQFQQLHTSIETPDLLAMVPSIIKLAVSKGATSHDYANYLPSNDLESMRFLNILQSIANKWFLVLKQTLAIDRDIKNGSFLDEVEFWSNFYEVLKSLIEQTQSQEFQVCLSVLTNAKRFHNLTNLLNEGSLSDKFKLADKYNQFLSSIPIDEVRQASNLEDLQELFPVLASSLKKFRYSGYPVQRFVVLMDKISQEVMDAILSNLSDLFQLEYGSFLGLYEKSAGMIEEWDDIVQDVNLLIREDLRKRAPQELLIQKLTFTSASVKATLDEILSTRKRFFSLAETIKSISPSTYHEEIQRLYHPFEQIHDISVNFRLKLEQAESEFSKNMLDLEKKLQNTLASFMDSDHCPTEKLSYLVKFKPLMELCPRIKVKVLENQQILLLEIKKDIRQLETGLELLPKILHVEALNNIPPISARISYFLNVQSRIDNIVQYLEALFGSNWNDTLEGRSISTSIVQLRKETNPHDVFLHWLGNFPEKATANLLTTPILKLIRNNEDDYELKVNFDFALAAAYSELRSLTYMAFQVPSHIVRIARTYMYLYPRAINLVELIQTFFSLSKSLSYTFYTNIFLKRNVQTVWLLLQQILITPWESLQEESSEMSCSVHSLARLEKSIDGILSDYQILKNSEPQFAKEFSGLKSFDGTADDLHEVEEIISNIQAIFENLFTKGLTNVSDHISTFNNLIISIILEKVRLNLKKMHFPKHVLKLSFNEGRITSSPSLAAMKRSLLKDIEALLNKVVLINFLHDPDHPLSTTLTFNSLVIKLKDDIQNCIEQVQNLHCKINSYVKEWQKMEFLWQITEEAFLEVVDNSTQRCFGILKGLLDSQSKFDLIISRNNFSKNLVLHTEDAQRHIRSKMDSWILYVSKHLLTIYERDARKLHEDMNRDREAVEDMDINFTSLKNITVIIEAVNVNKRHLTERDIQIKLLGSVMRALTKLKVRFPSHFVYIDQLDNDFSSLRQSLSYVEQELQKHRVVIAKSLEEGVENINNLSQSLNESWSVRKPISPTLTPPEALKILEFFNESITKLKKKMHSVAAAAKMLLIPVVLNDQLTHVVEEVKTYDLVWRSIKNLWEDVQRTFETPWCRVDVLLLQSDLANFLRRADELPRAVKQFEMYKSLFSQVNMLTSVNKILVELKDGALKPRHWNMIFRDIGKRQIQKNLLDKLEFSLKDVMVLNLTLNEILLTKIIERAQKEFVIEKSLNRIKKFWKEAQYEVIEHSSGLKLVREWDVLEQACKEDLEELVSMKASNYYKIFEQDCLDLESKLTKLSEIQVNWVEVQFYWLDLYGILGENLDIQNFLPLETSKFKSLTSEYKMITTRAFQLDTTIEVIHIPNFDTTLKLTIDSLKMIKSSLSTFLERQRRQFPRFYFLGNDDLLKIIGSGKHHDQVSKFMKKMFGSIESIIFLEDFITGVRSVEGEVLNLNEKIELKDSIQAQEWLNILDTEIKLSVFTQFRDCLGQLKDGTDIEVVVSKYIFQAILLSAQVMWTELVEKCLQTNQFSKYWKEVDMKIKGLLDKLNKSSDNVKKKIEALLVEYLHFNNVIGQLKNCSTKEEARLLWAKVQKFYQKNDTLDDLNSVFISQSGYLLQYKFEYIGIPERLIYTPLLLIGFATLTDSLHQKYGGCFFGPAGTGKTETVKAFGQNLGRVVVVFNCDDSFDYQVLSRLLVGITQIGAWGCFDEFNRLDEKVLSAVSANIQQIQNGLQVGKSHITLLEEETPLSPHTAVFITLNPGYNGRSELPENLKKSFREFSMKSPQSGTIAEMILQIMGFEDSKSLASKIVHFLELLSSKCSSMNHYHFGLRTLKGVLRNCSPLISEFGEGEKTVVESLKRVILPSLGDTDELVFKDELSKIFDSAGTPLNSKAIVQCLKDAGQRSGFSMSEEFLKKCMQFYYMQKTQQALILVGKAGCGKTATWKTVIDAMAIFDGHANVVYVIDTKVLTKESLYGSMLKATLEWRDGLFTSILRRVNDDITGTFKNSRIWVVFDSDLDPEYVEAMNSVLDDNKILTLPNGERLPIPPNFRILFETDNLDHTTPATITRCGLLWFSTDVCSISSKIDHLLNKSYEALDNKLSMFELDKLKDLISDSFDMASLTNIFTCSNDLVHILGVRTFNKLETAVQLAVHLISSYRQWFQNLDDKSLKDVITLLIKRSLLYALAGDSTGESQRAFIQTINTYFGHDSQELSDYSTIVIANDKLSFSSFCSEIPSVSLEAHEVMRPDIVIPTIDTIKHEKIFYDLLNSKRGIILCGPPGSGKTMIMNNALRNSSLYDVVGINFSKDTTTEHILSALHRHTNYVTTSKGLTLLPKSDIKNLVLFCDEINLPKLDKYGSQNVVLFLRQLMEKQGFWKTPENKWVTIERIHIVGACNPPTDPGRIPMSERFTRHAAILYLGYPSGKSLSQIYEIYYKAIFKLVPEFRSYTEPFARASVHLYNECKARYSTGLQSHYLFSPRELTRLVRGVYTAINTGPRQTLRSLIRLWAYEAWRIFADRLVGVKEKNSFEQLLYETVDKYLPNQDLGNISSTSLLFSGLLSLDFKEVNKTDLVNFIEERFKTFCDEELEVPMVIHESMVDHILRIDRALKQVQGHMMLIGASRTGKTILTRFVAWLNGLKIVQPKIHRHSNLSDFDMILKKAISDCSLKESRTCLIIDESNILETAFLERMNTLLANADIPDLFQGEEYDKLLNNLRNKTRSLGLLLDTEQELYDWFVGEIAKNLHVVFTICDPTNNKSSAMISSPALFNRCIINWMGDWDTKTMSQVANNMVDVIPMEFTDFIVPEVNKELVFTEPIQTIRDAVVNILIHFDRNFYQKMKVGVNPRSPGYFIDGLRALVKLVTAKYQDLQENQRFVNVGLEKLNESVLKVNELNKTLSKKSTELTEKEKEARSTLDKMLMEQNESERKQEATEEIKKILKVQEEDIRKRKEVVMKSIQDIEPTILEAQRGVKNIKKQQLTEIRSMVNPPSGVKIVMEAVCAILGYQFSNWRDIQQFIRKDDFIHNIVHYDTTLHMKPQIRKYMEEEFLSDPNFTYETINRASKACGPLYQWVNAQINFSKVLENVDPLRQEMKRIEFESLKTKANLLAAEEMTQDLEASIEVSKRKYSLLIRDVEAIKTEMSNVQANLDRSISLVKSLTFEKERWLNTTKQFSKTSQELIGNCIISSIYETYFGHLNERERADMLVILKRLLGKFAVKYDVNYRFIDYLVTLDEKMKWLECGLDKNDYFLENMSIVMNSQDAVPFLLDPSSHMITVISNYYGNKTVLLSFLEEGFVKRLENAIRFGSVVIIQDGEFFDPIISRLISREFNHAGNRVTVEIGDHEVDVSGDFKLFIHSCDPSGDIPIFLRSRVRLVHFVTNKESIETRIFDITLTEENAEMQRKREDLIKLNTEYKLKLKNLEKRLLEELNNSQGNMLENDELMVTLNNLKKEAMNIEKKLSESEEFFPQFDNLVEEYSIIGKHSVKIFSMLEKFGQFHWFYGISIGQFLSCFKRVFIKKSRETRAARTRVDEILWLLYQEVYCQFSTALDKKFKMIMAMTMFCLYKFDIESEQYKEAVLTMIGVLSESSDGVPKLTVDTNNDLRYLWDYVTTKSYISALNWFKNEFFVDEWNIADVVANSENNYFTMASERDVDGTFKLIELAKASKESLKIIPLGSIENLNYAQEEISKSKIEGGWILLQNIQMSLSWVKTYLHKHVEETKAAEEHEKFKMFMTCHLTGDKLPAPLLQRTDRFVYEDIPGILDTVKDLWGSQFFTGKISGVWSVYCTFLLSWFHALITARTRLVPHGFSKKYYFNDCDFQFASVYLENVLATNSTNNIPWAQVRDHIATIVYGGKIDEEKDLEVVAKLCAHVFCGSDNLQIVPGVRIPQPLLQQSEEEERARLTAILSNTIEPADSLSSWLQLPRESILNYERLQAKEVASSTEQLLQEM
UniProt P40960: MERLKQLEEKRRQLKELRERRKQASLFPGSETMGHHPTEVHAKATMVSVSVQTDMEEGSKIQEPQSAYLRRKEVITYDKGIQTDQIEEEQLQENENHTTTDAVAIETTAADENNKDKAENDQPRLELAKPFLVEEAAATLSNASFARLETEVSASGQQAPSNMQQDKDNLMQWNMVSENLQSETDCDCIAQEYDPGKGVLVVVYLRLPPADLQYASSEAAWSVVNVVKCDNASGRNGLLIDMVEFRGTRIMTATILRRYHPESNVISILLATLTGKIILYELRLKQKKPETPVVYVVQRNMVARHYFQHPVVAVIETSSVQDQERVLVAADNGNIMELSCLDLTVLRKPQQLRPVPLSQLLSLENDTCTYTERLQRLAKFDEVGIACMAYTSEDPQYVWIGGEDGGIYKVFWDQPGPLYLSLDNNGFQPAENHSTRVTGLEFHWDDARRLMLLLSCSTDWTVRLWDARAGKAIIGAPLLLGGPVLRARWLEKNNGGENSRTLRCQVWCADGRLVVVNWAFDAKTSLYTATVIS
UniProt Q04949: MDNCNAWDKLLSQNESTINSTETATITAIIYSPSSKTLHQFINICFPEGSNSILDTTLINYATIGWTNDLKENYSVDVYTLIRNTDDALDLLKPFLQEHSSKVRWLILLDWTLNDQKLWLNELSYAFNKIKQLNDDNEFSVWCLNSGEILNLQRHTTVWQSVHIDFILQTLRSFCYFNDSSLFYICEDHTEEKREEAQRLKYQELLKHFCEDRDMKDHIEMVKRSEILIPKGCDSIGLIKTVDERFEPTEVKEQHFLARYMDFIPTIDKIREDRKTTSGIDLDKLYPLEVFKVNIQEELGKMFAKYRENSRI
UniProt Q02647: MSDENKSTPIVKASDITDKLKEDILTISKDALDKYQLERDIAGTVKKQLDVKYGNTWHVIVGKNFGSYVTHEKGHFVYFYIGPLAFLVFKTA


Assays:
[1] = molecular target: T1, yeast Ndl1^CC E64A R78A (S. cerevisiae); assay: mass photometry; yeast proteins; mixed 1:1 at 50-100 nM each, 1-2 min, measured at 10-20 nM; 50 mM Tris pH 8.0, 150 mM K-acetate; both purified
[2] = molecular target: yeast dynein^∆ICN complex (Pac11 lacking its N-terminal 43 residues) (S. cerevisiae) (UniProt P36022+P40960+Q04949+Q02647); assay: TIRF microscopy microtubule recruitment assay; yeast proteins; dynein on taxol-stabilised microtubules held by anti-tubulin antibody; fluorescent partner flowed in, TEV buffer with 1 mM DTT, 5-10 min; intensity along microtubules; both purified

Row | Binder | binding [1] | binding [2]
1 | full-length yeast Pac1 with C-terminal FLAG-SNAPf (protein, UniProt P39946 1-494) MTNWQQQLPLTDTQKNELDKSVLRYLNWNYKQTVRHEHAQDYESVRHAIVTLSGFLLQESVDRQEFISNNDTSNESMVDIDELLLPKKWNSIVRLQKKIIELEQNTETLVSQIKDLNTQVSELAQFKPTTSNGTSAHNVLKWIPRNLPSCLINVESSVTSVKLHPNLPIVFVATDHGKLYAFDLFNYTIPLASLQSHTKAITSMDVLFTNYTNSSKKNYLVIVTASKDLQIHVFKWVSEECKFQQIRSLLGHEHIVSAVKIWQKNNDVHIASCSRDQTVKIWDFHNGWSLKTFQPHSQWVRSIDVLGDYIISGSHDTTLRLTHWPSGNGLSVGTGHEFPIEKVKFIHFIEDSPEIRFRTPSTDRYKNWGMQYCVSASRDRTIKIWEIPLPTLMAHRAPIPNPTDSNFRCVLTLKGHLSWVRDISIRGQYLFSCADDKSVRCWDLNTGQCLHVWEKLHTGFVNCLDLDVDFDSNVTPRQMMVTGGLDCKSNVFMR | no binding | –
2 | full-length yeast Ndl1 with C-terminal FLAG-SNAPf (protein, UniProt Q06568 1-189, JFX554-SNAP or JFX650-SNAP ligand on the SNAPf tag) MVPNLDLETAIQIISSLETQLSELEGATKEYENDLEQVISKLKSDLLESQQQNKCNKKQITDLEIQVDELENENIQLRNKIETLQLESDRRLERNVLLEHELLDTKEALQKLRVSKEEATSGETRRNTRSLPSQNKKMKLFKDTIKVSTTSSTLYLQNMAKTNNAARSHCNIPNTQITQSTVIATTSSV | – | no binding
3 | yeast Nip100 coiled-coil 1 (Nip100^CC1, residues 97-377) with N-terminal eGFP (domain or fragment, UniProt P33420 97-377) EHSLLNGNAAQETIKNLQVKCESLASKLNKIKIENHELKTSVEKLSTNETVLLSKISRLDKLVKELKVENGNMKTHLDNFNHLLDASDSVMAPDLDKGTLLERSHLLQGLLDQTKLSYDKAMKVQEDLLEENTQLLEENAVLSKKISDLGLQLQQTNNTIGDLALQIEAQSKSSNIVDKLTNDNILLTSNIKALNNELEELQAKEKLDENLRITYEQLEQELRLQLSNLQSALENEKEIAGTYIEENSRLKATLESIEAKTSHKFQSLELKVNTLQEELYQ | – | no binding

Source: PMC10511499
